## Library screening results

From ChEMBL document CHEMBL3988442, “University of Dundee, Small-Polar-MMV Screening Library” (2021).

Values are the deposited “Percent Effect”, in %. The record does not define 0% and 100%; most values in the screen are far below 50% and negative numbers occur (in some assays of this library far below -100). Compounds were drawn at random from those tested, without regard to their results. A dash means the value is not listed here; it may have been measured.

A: 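Whole-cell assay for inhibitors of Mycobacterium tuberculosis growth, labelled Cornell in the record; the read-out is not stated. The concentration is filed as 10 mM, unlikely as a test dose, so the dose is not known. Higher means stronger inhibition (inferred from two other growth screens of the library). Of about 53,000 compounds tested this way, about 900 (1.7%) reached 50% or more in at least one test.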
B: 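Assay on Mycobacterium tuberculosis, filed only as a heat shock assay from Cornell; the read-out is not stated. The concentration is filed as 10 mM, unlikely as a test dose, so the dose is not known. Direction is inferred from retests: higher values go with stronger inhibition. About 69,000 compounds were tested under these conditions; 1.4% (about 930) showed 50% or more at least once.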

Compound | A | B
CC(C)C1CCCN1C(=O)Nc1ccc(=O)n(C)c1 (stereo not drawn) | -18.61 | -15.39
CCn1ncnc1C(C)NC(=O)CC1CCN(C(C)C)CC1 (stereo not drawn) | -47.66 | -13.61
CCOc1ncccc1NC(=O)c1cc(C)sc1C | 36.5 | 19.66
Cc1cc(C)nc(N2CCCC(C)(c3[nH]ncc3C(=O)N(C)C)C2)n1 (stereo not drawn) | 32.2 | -29.37
CCN(Cc1cccc(Cl)c1)Cc1ncc(C(C)(C)C)o1 | 0.2424 | -28.51
CC(C)N(C)CCNC(=O)N1CCN(Cc2ccon2)CC1 | 12.99 | 9.329
O=C(O)c1ccnc(SCC(F)(F)F)c1 | 6.138 | -2.428
O=C(NC(C1CC1)C1CC1)c1cccc[n+]1[O-] | - | 2.046
COc1cccc(CNC(=O)N2CCN(Cc3cc(C)on3)CC2)c1 | -18.02 | 20.26
Cc1ccoc1C(=O)N1Cc2c(CN3CCCCC3)nn(C)c2C1.O=CO | - | -9.276
Cc1c(CNCCCOc2cccnc2)c2ccccc2n1CC(N)=O | -0.7162 | -20.73
CN(CCCc1cnn(C)c1)Cc1cc2n(n1)CCNC2 | -20.28 | -8.915
CC(NC(=O)OC(C)(C)C)c1nnc(S(=O)(=O)Cc2ccc(Cl)cc2)o1 (stereo not drawn) | 103.3 | 103.1
CCC(N)c1ccccc1OCC(=O)N1CCCC1 (stereo not drawn) | - | 20.3
CNC(=O)c1cc2c(nc1N(C)C)CCN(C)CC2.O=C(O)C(F)(F)F.O=C(O)C(F)(F)F | -1.232 | -22.32
O=C(Cc1ccc2c(c1)CCC2)NCCNc1ncccn1 | -13.49 | -7.061
CC(C)c1csc(C2CCCN(C(=O)c3ccc(=O)n(C)c3)C2)n1 (stereo not drawn) | 30.63 | 9.598
CCN(C)C1CCCc2nc(C)sc21 (stereo not drawn) | - | -2.369
COc1ccccc1[C@@H]1CN(Cc2cc(C(C)(C)C)[nH]n2)C[C@H]1C(=O)O | 13.24 | 79.87
Cn1cnnc1S(=O)(=O)C1CCN(S(=O)(=O)c2ccc(Cl)s2)CC1 | 6.004 | -4.687
CCC1CN(C(=O)c2ncccc2O)CCC(=O)N1Cc1ccccc1 (stereo not drawn) | 13.18 | -17.61
O=C(c1cccnc1)N1CCCC(c2ccnc3nccn23)C1 (stereo not drawn) | -17.69 | -3.841
O=C(O)C(F)(F)F.O=C(c1c[nH]cn1)N1CCC(F)(F)C2(CCN(c3ncccn3)C2)C1 (stereo not drawn) | 14.71 | -10.36
CN1CCc2[nH]nc(C(=O)N3CCC4(CCCO4)CC3)c2C1 | 1.95 | -5.688
O=C(CN1CCCC1c1cccs1)N1CCc2sccc2C1 (stereo not drawn) | - | -7.343
CN1CCN(S(=O)(=O)c2cccc(F)c2)c2cnccc21 | 45.43 | 4.209
COCCC(=O)N(Cc1cccnc1)CC1CCN(C2CCCC2)CC1 | 27.81 | 8.217
COCc1cc(CNC(=O)c2c(O)cccc2O)n[nH]1 | 10.82 | 4.311
Cc1[nH]ncc1CCCNC(=O)N1CCCC(c2nncn2C)C1 (stereo not drawn) | - | -9.994
CNC(=O)CCNC(=O)c1cccc(Cn2nc(C)cc2C)c1 | -8.233 | 8.781
O=C(COCc1ccccc1Cl)N1CCN(c2ccc(Br)cn2)CC1 | - | -9.035
Cc1ccc([C@@H]2CN(S(=O)(=O)N(C)C)C[C@H]2N(C)C)cc1 | -0.1365 | -8.595
O=C(COc1ccc2c(c1)CCC2)NCc1ccco1 | - | -12.62
O=C(Cc1ccc(F)c(Br)c1)NC1CCN(CC(F)F)CC1 | - | -7.725
CCc1ccc(CCn2cnc(C#N)n2)cc1 | 24.6 | -5.997
COCCNc1c(-c2ccc(C)cc2)c(=O)c1=O | - | 11.22
COCC1COCCC12CCN(CCc1ccccc1)CC2.O=C(O)C(F)(F)F (stereo not drawn) | 14.75 | 5.983
CCc1nc(CC2CN(c3ncnc4nc(C)cc(C)c34)CCO2)no1 (stereo not drawn) | 8.644 | -15.11
Cc1cccc(C(=O)N2CCCCC2c2[nH]ncc2S(C)(=O)=O)c1 (stereo not drawn) | - | 4.224
CC(C)(C)c1cnc(CN2CCC(NC(=O)Nc3ccccc3)CC2)o1 | 5.773 | -20.01
NC(=O)c1cc2c(nc1N)CCN(C(=O)C1CCCCC1)C2 | -9.642 | -22.15
CCCn1cc2c(C(F)F)cc(SCC(=O)O)nc2n1 | -41.08 | 6.615
COc1cc(CNCC(C)O)cc(Cl)c1OCc1ccc(C)cc1.Cl (stereo not drawn) | -13.07 | 14.32
Cc1cccc(C2(C(=O)NS(=O)(=O)c3cnn(C)c3)CCCC2)c1 | 6.972 | -11.72
Cc1cc(N2CCN(C(=O)c3cnn(C(C)C)c3)CC2)nc(N)n1 | 11.77 | 14.3
O=C(c1ccc2c(c1)CCO2)N1CCN(c2ccc(Cl)cn2)CC1 | 22.55 | -16.71
COc1cccc(CN(C)C(=O)c2ccc(NC(C)=O)s2)c1OC | -5.07 | -5.613
CCN(CC)S(=O)(=O)N1CCCC(c2cccc(C(=O)O)c2)C1 (stereo not drawn) | - | 15.49
COc1ccc(C2SCC(=O)N2c2ncc(C)s2)cc1 (stereo not drawn) | 29.56 | 5.896
Clc1ccc2oc(C3CCN(Cc4cccnc4)CC3)nc2c1 | - | -12.47
CC(C)Cc1cc(NC(=O)c2ccc(=O)[nH]n2)n(C)n1 | 12.88 | -18.02
CN(c1nccc(-c2cnc3sc(Cl)cn3c2=O)n1)C1CCCCC1 | 11.45 | -2.011
COCC1CC2(CCN(Cc3ccoc3)CC2)CN1Cc1ccccn1 (stereo not drawn) | -30.04 | 38.87
O=c1[nH]cc(N2CCCCCC2)c(=O)[nH]1 | -29.23 | -8.081
CC(C)(C)C(=O)N1C[C@@H](F)[C@@H](OCc2nc3ncccc3[nH]2)C1 | -7.31 | -7.618
[H][C@@]12CCN(C(C)=O)C[C@@]1([H])[C@H](C(=O)N1CCCCO1)CCO2 | - | -7.31
Cc1ccc(CN2CCCC3(CCCC(=O)N3C)C2)s1.O=C(O)C(F)(F)F (stereo not drawn) | 1.406 | 2.006
Cc1cc(CCC(=O)N2CCC(O)CC2)ccc1Br | - | -0.3732
CN(c1ncc(C(=O)Nc2ccccc2)c(N)n1)C1CCCCC1 | 9.118 | -5.095
CN1CCCC2(CCN(S(=O)(=O)c3ccc(-c4cnco4)s3)C2)C1=O (stereo not drawn) | -45.1 | 12.96
Cn1cccc1C(O)CNC(=O)c1ccc(C(F)(F)F)cc1 (stereo not drawn) | 56.65 | 12.64
CC(C)(CNc1ccc(S(=O)(=O)C(F)F)cc1)N1CCOCC1 | - | -1.967
[H][C@@]12CCN(S(C)(=O)=O)[C@]1([H])CC[C@H](c1nc(C)no1)O2 | 22 | 8.347
O=C(NC1CCCN(c2ccccc2Cl)C1)c1c[nH]nn1 (stereo not drawn) | 30.17 | -1.092
CC(=O)c1cccc(OCCCC(=O)NC(C#N)CC(C)C)c1 (stereo not drawn) | 39.53 | -35.05
[H][C@]12CC[C@]([H])(CN(Cc3ccccn3)C1)N(CC(=O)Nc1ccccc1)C2 | 31.76 | 12.62
O=C(NCC1(C(=O)O)CCC1)c1nnn(-c2ccc(F)cc2)c1C1CC1 | -27.2 | -19.91
CN1CCCC(c2cccc(-c3ccccc3F)n2)C1 (stereo not drawn) | 55.32 | 2.369
O=C(O)C(F)(F)F.O=C(O)C(F)(F)F.c1cnc(N2CCCC3(CN(CC4CCOCC4)CCO3)C2)cn1 (stereo not drawn) | 22.63 | -56.73
O=C(O)C(F)(F)F.O=C(O)C(F)(F)F.[H][C@@]12CN(C)CCO[C@]1([H])CN(S(=O)(=O)c1cccnc1)C2 | 8.398 | 3.788
COC(=O)c1cccc(C2CNCCN2C(C)=O)c1 (stereo not drawn) | -43.33 | -18.96
Cc1noc(C(C)N2CCN(CC(=O)N3CCCC3)CC2)n1 (stereo not drawn) | 23.66 | 15.62
Cc1ccccc1CN1CCN(C(=O)CCn2ccccc2=O)CC1 | - | -5.903
O=C(CC1COCCN1)NCCc1nc(-c2ccccn2)no1 (stereo not drawn) | - | -33.37
CC(C)Cc1noc(COc2ccc(N(C)C(N)=O)cc2)n1 | -9.93 | 4.769
Cc1noc(C)c1-c1nc(C2CCCN(C(=O)C(C)C)C2)ccc1CO (stereo not drawn) | 15.83 | -12.42
CN(C)CCN1CCCC12CCCN(Cc1ccoc1)C2.O=C(O)C(F)(F)F.O=C(O)C(F)(F)F.O=C(O)C(F)(F)F (stereo not drawn) | -9.406 | -58.61
c1ccc2ncc(CC3CCNC3)cc2c1 (stereo not drawn) | -46.09 | -19.05
CS(=O)(=O)Nc1ccn(Cc2ccc(F)cc2Cl)n1 | -31.96 | 1.26

For reference, 10 entries once more:

Compound,A,B
CN1CCCC2(CCN(S(=O)(=O)c3ccc(-c4cnco4)s3)C2)C1=O (stereo not drawn),-45.1,12.96
Cc1cc(CCC(=O)N2CCC(O)CC2)ccc1Br,-,-0.3732
Cc1c(CNCCCOc2cccnc2)c2ccccc2n1CC(N)=O,-0.7162,-20.73
Cc1cccc(C2(C(=O)NS(=O)(=O)c3cnn(C)c3)CCCC2)c1,6.972,-11.72
COCC1COCCC12CCN(CCc1ccccc1)CC2.O=C(O)C(F)(F)F (stereo not drawn),14.75,5.983
CC(C)C1CCCN1C(=O)Nc1ccc(=O)n(C)c1 (stereo not drawn),-18.61,-15.39
O=C(Cc1ccc(F)c(Br)c1)NC1CCN(CC(F)F)CC1,-,-7.725
Cc1ccccc1CN1CCN(C(=O)CCn2ccccc2=O)CC1,-,-5.903
O=C(O)C(F)(F)F.O=C(c1c[nH]cn1)N1CCC(F)(F)C2(CCN(c3ncccn3)C2)C1 (stereo not drawn),14.71,-10.36
O=C(NC1CCCN(c2ccccc2Cl)C1)c1c[nH]nn1 (stereo not drawn),30.17,-1.092